This experiment has as its target T1, wild type TMEM43 (TMEM43 p.358S) (human) (UniProt Q9BTV4).
T1 sequence: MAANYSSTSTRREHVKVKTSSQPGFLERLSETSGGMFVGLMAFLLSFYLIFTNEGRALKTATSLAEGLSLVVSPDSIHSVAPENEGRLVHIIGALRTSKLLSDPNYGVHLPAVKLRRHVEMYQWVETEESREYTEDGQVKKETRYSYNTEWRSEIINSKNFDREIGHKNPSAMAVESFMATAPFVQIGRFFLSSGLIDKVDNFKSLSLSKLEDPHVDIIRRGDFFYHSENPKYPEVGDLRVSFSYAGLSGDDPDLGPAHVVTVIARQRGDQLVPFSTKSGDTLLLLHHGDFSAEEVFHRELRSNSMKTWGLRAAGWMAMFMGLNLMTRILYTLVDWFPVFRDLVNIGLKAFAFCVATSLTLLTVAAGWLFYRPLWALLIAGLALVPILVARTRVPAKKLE
Nature of the experiment: co-IP.

These are yes or no findings as the source states them, for the method shown. In cells and extracts the contact can be indirect. Some results given as binding are weak or reduced against the parent protein; the word gives no strength.

B1: wild type TMEM43 (TMEM43 p.358S) (protein, UniProt Q9BTV4 1-400)
chain: MAANYSSTSTRREHVKVKTSSQPGFLERLSETSGGMFVGLMAFLLSFYLIFTNEGRALKTATSLAEGLSLVVSPDSIHSVAPENEGRLVHIIGALRTSKLLSDPNYGVHLPAVKLRRHVEMYQWVETEESREYTEDGQVKKETRYSYNTEWRSEIINSKNFDREIGHKNPSAMAVESFMATAPFVQIGRFFLSSGLIDKVDNFKSLSLSKLEDPHVDIIRRGDFFYHSENPKYPEVGDLRVSFSYAGLSGDDPDLGPAHVVTVIARQRGDQLVPFSTKSGDTLLLLHHGDFSAEEVFHRELRSNSMKTWGLRAAGWMAMFMGLNLMTRILYTLVDWFPVFRDLVNIGLKAFAFCVATSLTLLTVAAGWLFYRPLWALLIAGLALVPILVARTRVPAKKLE
In the case of B1, the binding result was “binds”.

B2: TMEM43 p.S358L (protein, UniProt Q9BTV4 1-400)
chain: MAANYSSTSTRREHVKVKTSSQPGFLERLSETSGGMFVGLMAFLLSFYLIFTNEGRALKTATSLAEGLSLVVSPDSIHSVAPENEGRLVHIIGALRTSKLLSDPNYGVHLPAVKLRRHVEMYQWVETEESREYTEDGQVKKETRYSYNTEWRSEIINSKNFDREIGHKNPSAMAVESFMATAPFVQIGRFFLSSGLIDKVDNFKSLSLSKLEDPHVDIIRRGDFFYHSENPKYPEVGDLRVSFSYAGLSGDDPDLGPAHVVTVIARQRGDQLVPFSTKSGDTLLLLHHGDFSAEEVFHRELRSNSMKTWGLRAAGWMAMFMGLNLMTRILYTLVDWFPVFRDLVNIGLKAFAFCVATLLTLLTVAAGWLFYRPLWALLIAGLALVPILVARTRVPAKKLE
In the case of B2, the binding result is listed as “binds”.

For the origin of these results see paper doi:10.1101/2024.02.06.579108.
